Where a name gives a salt, the structure may show the parent alone. The list shows a part of the results. Single values of this set are uncertain.
These molecules were tested on Peyronie's disease tunica albuginea primary fibroblasts (assay: inhibition of TGF-beta1-induced alpha-SMA expression (myofibroblast transformation), relative to TGF-beta1-only and untreated controls; higher = stronger inhibition of myofibroblast transformation). Settings: 10 µM; TGF-beta1 10 ng/mL; 72 h.

SMILES	inhibition of TGF-beta1-induced alpha-SMA expression [%]
C1=N/C2=N/c3ccc(OCCN4CCCC4)c(c3)COC/C=C/COCc3cccc(c3)C(=C1)N2 [Pacritinib (SB1518)]	> 100
COc1ccc2cccc(CCNC(C)=O)c2c1 [Agomelatine]	-9.25
Cc1[nH]c(/C=C2\C(=O)Nc3ccccc32)c(C)c1CCC(=O)O [Orantinib (TSU-68, SU6668)]	-28.2
CC(=O)N1CCN(c2ccc(OCC3COC(Cn4ccnc4)(c4ccc(Cl)cc4Cl)O3)cc2)CC1 (configuration not stated) [Ketoconazole]	14.2
CN(CCOc1ccc(NS(C)(=O)=O)cc1)CCc1ccc(NS(C)(=O)=O)cc1 [Dofetilide]	1.92
CC(C)NC[C@H](O)COc1ccc(CCOCC2CC2)cc1 [Levobetaxolol HCl]	20.3
CCCCCCCC(=O)N[C@H](CN1CCCC1)[C@H](O)c1ccc2c(c1)OCCO2 [Eliglustat]	28.3
COC(=O)C1=C(C)NC(C)=C(C(=O)OC)C1c1ccccc1[N+](=O)[O-] [Nifedipine]	3.51
Clc1ccccc1CN1CCc2sccc2C1 [Ticlopidine HCl]	4.77
Nc1ccc(O)c(C(=O)O)c1 [Mesalamine]	-9.66
Cc1cc(NC(=O)C2=C(O)c3ccccc3S(=O)(=O)N2C)no1 [Isoxicam]	30.6
CN(C)CCCN1c2ccccc2CCc2ccc(Cl)cc21 [Clomipramine HCl]	47.2
C#C[C@]1(OC(C)=O)CC[C@H]2[C@@H]3CCC4=C[C@@H](OC(C)=O)CC[C@@H]4[C@H]3CC[C@@]21C [Ethynodiol diacetate]	31.7
Nc1ccc(S(=O)(=O)Nc2ncccn2)cc1 [Sulfadiazine]	16
Nc1ccc(S(=O)(=O)Nc2ncccn2)cc1 [Sodium sulfadiazine]	32.2
C=CCc1cc(OC)c(O)c(C(=O)NCCO)c1 [Alibendol]	11.8
CO[C@@]1(NC(=O)C(C(=O)O)c2ccc(O)cc2)C(=O)N2C(C(=O)O)=C(CSc3nnnn3C)CO[C@@H]21 (some centres not stated) [Latamoxef sodium]	56.9
C#C[C@]1(O)CC[C@H]2[C@@H]3CCC4=CC(=O)CC[C@@H]4[C@H]3CC[C@@]21C [Norethindrone]	23.1
CC(=O)OC/C=C(C)/C=C/C=C(C)/C=C/C1=C(C)CCCC1(C)C [Vitamin A Acetate]	23.9
NS(=O)(=O)c1cc2c(cc1Cl)N=C(CSCc1ccccc1)NS2(=O)=O [Benzthiazide]	14.5
CCCCCCCCCCCCCCCCCC(=O)O [Stearic acid]	-9.56
CC(=O)Oc1cc(C(F)(F)F)ccc1C(=O)O [Triflusal]	22.8
CNC(=O)c1ccc2cc([C@@]3(O)CCn4cncc43)ccc2c1 [TAK-700 (Orteronel)]	57.4
C[C@]12C=CC(=O)C=C1CC[C@@H]1[C@@H]2[C@@H](O)C[C@@]2(C)[C@H]1CC[C@]2(O)C(=O)CO [Prednisolone]	34.7

SMILES	inhibition of TGF-beta1-induced alpha-SMA expression [%]
O=c1[nH]cc(F)c(=O)[nH]1 [Fluorouracil (5-Fluoracil, 5-FU)]	-9.86
CS(=O)(=O)c1ccc([C@@H](O)[C@@H](CO)NC(=O)C(Cl)Cl)cc1 [Thiamphenicol]	-12.1
CO/N=C(\C(=O)N[C@@H]1C(=O)N2C(C(=O)[O-])=C(C[n+]3ccn4ncccc43)CS[C@H]12)c1nsc(N)n1 [Cefozopran hydrochloride]	49.9
Cc1cncc(CN2CCC(=C3c4ccc(Cl)cc4CCc4cccnc43)CC2)c1 [Rupatadine Fumarate]	40.2
C[C@@H](c1ncncc1F)[C@](O)(Cn1cncn1)c1ccc(F)cc1F [Voriconazole]	26.5
O=C(Nc1cc(Cl)cc(Cl)c1O)c1c(O)c(Cl)cc(Cl)c1Cl [Oxyclozanide]	19.1
O=C(O)Cc1ccccc1Nc1c(Cl)cccc1Cl [Diclofenac Potassium]	24.1
O=C(O)Cc1ccccc1Nc1c(Cl)cccc1Cl [Diclofenac Sodium]	21
O=C(O)Cc1ccccc1Nc1c(Cl)cccc1Cl [Diclofenac Diethylamine]	28.7
C[C@@H]1CC(=O)NN=C1c1ccc(NN=C(C#N)C#N)cc1 [Levosimendan]	-0.651
Oc1c(Br)cc(Br)c2cccnc12 [Broxyquinoline]	-16.6
CC(C)C[C@H](NC(=O)[C@H](Cc1ccccc1)NC(=O)c1cnccn1)B(O)O [Bortezomib (PS-341)]	> 100
COc1ccc(CC(C)NCC(O)c2ccc(O)c(NC=O)c2)cc1 (configuration not stated) [Formoterol Hemifumarate]	41.9
CS(=O)(=O)c1ccc(C(=O)Nc2ccc(Cl)c(-c3ccccn3)c2)c(Cl)c1 [Vismodegib (GDC-0449)]	7.75
CNC[C@H](O)[C@@H](O)[C@H](O)[C@H](O)CO.CNC[C@H](O)[C@@H](O)[C@H](O)[C@H](O)CO.O=C([O-])CN(CCN(CC(=O)[O-])CC(=O)O)CCN(CC(=O)[O-])CC(=O)O.[Gd+3] [Gadopentetate Dimeglumine]	88.6
CCOC(=O)N1CCC(=C2c3ccc(Cl)cc3CCc3cccnc32)CC1 [Loratadine]	29.6
Nc1nc(F)nc2c1ncn2[C@@H]1O[C@H](COP(=O)(O)O)[C@@H](O)[C@@H]1O [Fludarabine Phosphate]	-8.51
COC(=O)[C@H](c1ccccc1Cl)N1CCc2sccc2C1 [Clopidogrel]	37.5
COCCCC/C(=N\OCCN)c1ccc(C(F)(F)F)cc1 [Fluvoxamine maleate]	25.9
NC(=O)N1CCC(CC(=O)N2CCC([C@H]3c4ncc(Br)cc4CCc4cc(Cl)cc(Br)c43)CC2)CC1 [Lonafarnib]	6.37
C[C@H](N[C@@H](CCc1ccccc1)C(=O)O)C(=O)N1CCC[C@H]1C(=O)O [Enalaprilat Dihydrate]	-1.88
CN(C)[C@@H]1C(O)=C(C(N)=O)C(=O)[C@@]2(O)C(O)=C3C(=O)c4c(O)cccc4[C@@](C)(O)[C@H]3C[C@@H]12 [Tetracycline HCl]	42.5
CNC[C@@H](O)c1ccc(O)c(O)c1 [L-Adrenaline]	5.79
CC(C)Nc1cc(-c2c[nH]c(C(=O)N[C@H](CO)c3cccc(Cl)c3)c2)c(Cl)cn1	-55.1

Part of the list above, as comma-separated lines:
SMILES,inhibition of TGF-beta1-induced alpha-SMA expression [%]
CN(C)[C@@H]1C(O)=C(C(N)=O)C(=O)[C@@]2(O)C(O)=C3C(=O)c4c(O)cccc4[C@@](C)(O)[C@H]3C[C@@H]12 [Tetracycline HCl],42.5
CNC[C@@H](O)c1ccc(O)c(O)c1 [L-Adrenaline],5.79

Next part

SMILES	inhibition of TGF-beta1-induced alpha-SMA expression [%]
Cc1ccc(N(CC2=NCCN2)c2cccc(O)c2)cc1 [Phentolamine Mesylate]	-11.4
Cc1c(C(C)C)c(=O)n(-c2ccccc2)n1C [Propyphenazone (4-Isopropylantipyrine)]	13.5
CCc1ccc(CCOc2ccc(CC3SC(=O)NC3=O)cc2)nc1 (configuration not stated) [Pioglitazone HCl]	14.6
CCc1ccc(CCOc2ccc(CC3SC(=O)NC3=O)cc2)nc1 (configuration not stated) [Pioglitazone]	9.33
CCCSc1ccc2[nH]c(NC(=O)OC)nc2c1 [Albendazole]	91.3
Cc1c(Cl)cccc1Nc1ccccc1C(=O)O [Tolfenamic Acid]	14.3
CO[C@H]1/C=C/O[C@@]2(C)Oc3c(C)c(O)c4c(O)c(c(/C=N/N5CCN(C)CC5)c(O)c4c3C2=O)NC(=O)/C(C)=C\C=C\[C@H](C)[C@H](O)[C@@H](C)[C@@H](O)[C@@H](C)[C@H](OC(C)=O)[C@@H]1C [Rifampin]	26.3
CC(C(=O)O)c1ccc(CC2CCCC2=O)cc1 (configuration not stated) [Loxoprofen]	42.9
CC(C(=O)O)c1ccc(CC2CCCC2=O)cc1 (configuration not stated) [Loxoprofen Sodium]	-8.69
CC[C@H]1OC(=O)[C@H](C)[C@@H](O[C@H]2C[C@@](C)(OC)[C@@H](O)[C@H](C)O2)[C@H](C)[C@@H](O[C@@H]2O[C@H](C)C[C@H](N(C)C)[C@H]2O)[C@](C)(O)C[C@@H](C)C(=O)[C@H](C)[C@@H](O)[C@]1(C)O [Erythromycin]	70.9
CC[C@H]1OC(=O)[C@H](C)[C@@H](O[C@H]2C[C@@](C)(OC)[C@@H](O)[C@H](C)O2)[C@H](C)[C@@H](O[C@@H]2O[C@H](C)C[C@H](N(C)C)[C@H]2O)[C@](C)(O)C[C@@H](C)C(=O)[C@H](C)[C@@H](O)[C@]1(C)O [Erythromycin thiocyanate]	47.9
COc1cccc(-c2c(C)n(Cc3c(F)cccc3C(F)(F)F)c(=O)n(C[C@H](NCCCC(=O)O)c3ccccc3)c2=O)c1F [Elagolix Sodium]	53.5
CC1=C(/C=C/C(C)=C/C=C/C(C)=C/C=C/C=C(C)/C=C/C=C(C)/C=C/C2=C(C)CCCC2(C)C)C(C)(C)CCC1 [Beta Carotene]	29.3
CC(C)(Oc1ccc(CCNC(=O)c2ccc(Cl)cc2)cc1)C(=O)O [Bezafibrate]	-18.9
OCCN1CCN(CCCN2c3ccccc3Sc3ccc(C(F)(F)F)cc32)CC1 [Fluphenazine dihydrochloride]	34.6
c1ccc(CC2=NCCN2)cc1 [Tolazoline HCl]	-28.5
O=C(Cn1ccnc1[N+](=O)[O-])NCc1ccccc1 [Benznidazole]	-8.89
O=C1c2ccccc2C(=O)C1c1ccccc1 [Phenindione]	15.2
O=C(c1cc(Cc2n[nH]c(=O)c3ccccc23)ccc1F)N1CCN(C(=O)C2CC2)CC1	-80.2
Clc1ccc2c(c1)C(N1CCNCC1)=Nc1ccccc1O2 [Amoxapine]	44.6
O=C(O)CCc1nc(-c2ccccc2)c(-c2ccccc2)o1 [Oxaprozin]	2.23
OC[C@@H](O)[C@@H](O)[C@H](O)[C@H](O)CO [D-Mannitol]	2.9
C[C@H](NCc1ccc(OCc2cccc(F)c2)cc1)C(N)=O [Safinamide Mesylate]	7.75
C[C@H](NCc1ccc(OCc2cccc(F)c2)cc1)C(N)=O [Safinamide]	20.6

Some of the entries so far, as a markdown table.

| SMILES | inhibition of TGF-beta1-induced alpha-SMA expression [%] |
| --- | --- |
| O=c1[nH]cc(F)c(=O)[nH]1 [Fluorouracil (5-Fluoracil, 5-FU)] | -9.86 |
| O=C(O)Cc1ccccc1Nc1c(Cl)cccc1Cl [Diclofenac Potassium] | 24.1 |
